According to article doi:10.1101/2020.02.28.969618:
These are yes or no findings as the source states them, for the method shown. Some entries that bind do so weakly or less than the wild type. For some assays here: Sequences can lack the tags named with a protein.

Amino acid sequences for entries named in this document (tags omitted). A change or cut given only in a name is not applied to a line headed by its entry. Residues count along the entry.
UniProt P53115: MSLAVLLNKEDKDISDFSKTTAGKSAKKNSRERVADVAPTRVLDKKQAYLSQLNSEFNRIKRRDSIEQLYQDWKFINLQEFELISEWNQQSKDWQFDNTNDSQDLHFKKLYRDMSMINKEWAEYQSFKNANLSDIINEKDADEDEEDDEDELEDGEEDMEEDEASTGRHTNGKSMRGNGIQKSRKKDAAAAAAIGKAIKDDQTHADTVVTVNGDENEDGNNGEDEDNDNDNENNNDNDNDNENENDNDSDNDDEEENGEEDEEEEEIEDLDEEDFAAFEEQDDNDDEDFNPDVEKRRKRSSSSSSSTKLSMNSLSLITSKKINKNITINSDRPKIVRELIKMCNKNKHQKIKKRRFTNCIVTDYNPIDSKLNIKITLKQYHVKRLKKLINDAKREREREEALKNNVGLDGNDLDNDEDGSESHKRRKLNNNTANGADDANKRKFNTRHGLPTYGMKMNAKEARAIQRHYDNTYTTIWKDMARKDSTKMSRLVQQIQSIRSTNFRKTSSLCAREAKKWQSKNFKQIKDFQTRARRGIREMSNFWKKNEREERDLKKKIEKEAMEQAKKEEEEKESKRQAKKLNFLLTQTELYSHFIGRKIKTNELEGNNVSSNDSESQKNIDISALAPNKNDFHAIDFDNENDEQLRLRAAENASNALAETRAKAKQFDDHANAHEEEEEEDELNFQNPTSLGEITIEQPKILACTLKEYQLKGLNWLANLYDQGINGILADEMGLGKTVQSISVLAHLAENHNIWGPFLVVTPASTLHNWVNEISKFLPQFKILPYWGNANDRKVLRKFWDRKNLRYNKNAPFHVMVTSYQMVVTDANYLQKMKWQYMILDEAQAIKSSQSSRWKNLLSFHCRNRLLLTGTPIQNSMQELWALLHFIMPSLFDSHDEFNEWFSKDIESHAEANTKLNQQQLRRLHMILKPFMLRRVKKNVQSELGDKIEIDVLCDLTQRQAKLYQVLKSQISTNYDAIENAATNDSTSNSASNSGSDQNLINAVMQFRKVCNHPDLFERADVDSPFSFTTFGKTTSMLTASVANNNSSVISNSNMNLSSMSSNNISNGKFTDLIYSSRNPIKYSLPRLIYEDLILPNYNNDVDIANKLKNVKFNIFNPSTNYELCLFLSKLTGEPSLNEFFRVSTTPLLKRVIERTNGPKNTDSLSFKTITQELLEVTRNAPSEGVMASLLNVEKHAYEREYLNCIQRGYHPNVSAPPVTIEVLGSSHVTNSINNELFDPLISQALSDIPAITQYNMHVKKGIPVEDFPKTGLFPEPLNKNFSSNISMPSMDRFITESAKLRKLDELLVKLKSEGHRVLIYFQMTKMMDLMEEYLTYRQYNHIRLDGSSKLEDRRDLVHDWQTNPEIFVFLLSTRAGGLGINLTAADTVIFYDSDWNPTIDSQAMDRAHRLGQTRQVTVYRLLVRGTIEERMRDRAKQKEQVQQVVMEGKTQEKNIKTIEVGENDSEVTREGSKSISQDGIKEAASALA
Ino80^ΔN (2xFlag), Ino80 ATPase lacking residues 1-461: residues 462-1489 of P53115
UniProt P35189: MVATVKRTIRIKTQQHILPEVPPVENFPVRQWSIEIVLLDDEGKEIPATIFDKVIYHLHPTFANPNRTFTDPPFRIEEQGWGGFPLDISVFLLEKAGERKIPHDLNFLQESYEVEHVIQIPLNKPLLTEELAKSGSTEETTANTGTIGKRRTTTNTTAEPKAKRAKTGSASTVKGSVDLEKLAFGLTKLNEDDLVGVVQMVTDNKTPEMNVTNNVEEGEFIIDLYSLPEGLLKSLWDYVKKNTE

Columns and labels:
[1] = biological target: Ino80^ΔN (2xFlag), Ino80 ATPase lacking residues 1-461 (S. cerevisiae) (UniProt P53115); assay: co-purification
[2] = biological target: Ino80 (2xFlag), main ATPase subunit of the S. cerevisiae INO80 complex (S. cerevisiae) (UniProt P53115); assay: co-purification

Row | Molecule | binding [1] | binding [2]
1 | Taf14 (from UniProt P35189 1-244) | no binding | binds
2 | Ies3 (protein, UniProt Q12345 1-250) MKFEDLLATNKQVQFAHAATQHYKSVKTPDFLEKDPHHKKFHNADGLNQQGSSTPSTATDANAASTASTHTNTTTFKRHIVAVDDISKMNYEMIKNSPGNVITNANQDEIDISTLKTRLYKDNLYAMNDNFLQAVNDQIVTLNAAEQDQETEDPDLSDDEKIDILTKIQENLLEEYQKLSQKERKWFILKELLLDANVELDLFSNRGRKASHPIAFGAVAIPTNVNANSLAFNRTKRRKINKNGLLENIL | no binding | binds
3 | Ies4 (protein, UniProt Q08561 1-116) MSQESSVLSESQEQLANNPKIEDTSPPSANSRDNSKPVLPWDYKNKAIEIKSFSGYKVNFTGWIRRDVREERQRGSEFTASDVKGSDDKATRKKEPADEDPEVKQLEKEGEDGLDS |  | binds
4 | Ies5 (protein, UniProt P40060 1-125) MPSKDPESVIDKEIRKISARNDELIKQDGTLKREYTTLLRKVSSVITVLNSIDDADTGSAETELPRLISQATVEKVPELKWYNDQISLITEKLEDDEDIEVPEELMDAYTLYKETPLLYNDTHTP | no binding | binds
5 | Ies6 (protein, UniProt P32617 1-166) MSGSRGNSSNSSVSNNSNNNNNNDGGDERLLFLRSVGERNEIGFPSRFKSAHYKKPTRRHKSARQLISDENKRINALLTKANKAAESSTAARRLVPKATYFSVEAPPSIRPAKKYCDVTGLKGFYKSPTNNIRYHNAEIYQLIVKPMAPGVDQEYLKLRGANFVLK |  | binds
6 | Nhp10 (protein, UniProt Q03435 1-203) MSVEEKKRRLEELKDQNVVLGLAIQRSRLSVKRLKLEYGVLLERLESRIELDPELNCEDPLPTLASFKQELLTKPFRKSKTKRHKVKERDPNMPKRPTNAYLLYCEMNKERIRQNGSLDVTRDLAEGWKNLNEQDRKPYYKLYSEDRERYQMEMEIYNKKISNIDADDDKEENEQKIKNNEEGSSTKVADSKGGEDGSLVSSN | no binding | binds
7 | Arp5-His (protein, UniProt P53946 1-755) MSSRDASLTPLKAVVIDDPPLRQTPEPFDEQSAYNPQSPIAIDFGSSKLRAGFVNHATPTHIFPNALTKFRDRKLNKNFTFVGNDTLLDQAVRSQSRSPFDGPFVTNWNLTEEILDYTFHHLGVVPDNGIPNPILLTERLATVQSQRTNWYQILFETYNVPGVTFGIDSLFSFYNYNPSGNKTGLVISCGHEDTNVIPVVDGAGILTDAKRINWGGHQAVDYLNDLMALKYPYFPTKMSYLQYETMYKDYCYVSRNYDEDIEKILTLENLDTNDVVVEAPFTEVLQPQKTEEELRIQAEKRKETGKRLQEQARLKRMEKLVQKQEEFEYFSKVRDQLIDEPKKKVLSVLQNAGFDDERDFKKYLHSLEQSLKKAQMVEAEDDSHLDEMNEDKTAQKFDLLDIADEDLNEDQIKEKRKQRFLKASQDARQKAKEEKERVAKEEEEKKLKEQQWRETDLNGWIKDKRLKLNKLIKRRKEKLKLRDEMKDRKSQVSQNRMKNLASLAEDNVKQGAKRNRHQATIDNDPNDTFGANDEDWLIYTDITQNPEAFEEALEYEYKDIVELERLLLEHDPNFTEEDTLEAQYDWRNSILHLFLRGPRPHDSENIHEQHQMHLNVERIRVPEVIFQPTMGGQDQAGICELSETILLKKFGSQPGKLSQTSIDMVNNVLITGGNAKVPGLKERIVKEFTGFLPTGTNITVNMSSDPSLDAWKGMAALARNEEQYRKTVISKKEYEEYGPEYIKEHKLGNTKYFED |  | binds
8 | Ies1 (protein, UniProt P43579 1-692) MGKRVYDPIHDTFQLREDNSDETKADSPMQSVKSGSQEEASPSSIQSETETVTTKSIPVIHEIEIDDKNDDDSTQSEEENTNILLNFEPSTVPEATGASTATGPVTTNTVRRKPKESNASKYNRHLKKPDGEPFNRKDIQFSFMQELLMDKRQIFTNVLKPLYKNSIVPINIDGDKLSINVTDKEYDARTFVFNDKLTFAQLYVLTIATSIKCSKILRDKLLLDQQVAFSTCVLALLVNIGRLNTTINFYLEMTSQLRTFHSVPVLQLHANDPKLLQDTPRLKSILKNLPWGNEQLSLMETYKKVDQNDGEVDTVNKFNIINMLFSICDNSGLIDKRFLSKYVEVESKAQEQDMVDEQNEVKETEAENEKQESKAAYATTLFDILDYSKYEPKDRSNILIWLLYIHLETNLSQEEVEESVRFFNGLEDGAPAGKFILRCTERSYDTDPEDELEFGANQRIKRREFMSKMEEGRKRERTNVTEVKKPSIGGDKSEEDGEGEDDKSEETVEETRSLLTPTPILESSSPMTLNRKKVTPQLPKVTPAAPTETEEEITSAAIIDKNDLNLTPLKKYNSSATVNKVDKLISLDLNKHVSENGKTQEEFLADLKKSQVPNRLKRRDIGLIKIFNEFEDIPVASVLGIRGKKRKKFKDNLLGFETDFMKNLGASKKVLLNKIERAEIDDEEATAMFKLE | no binding | binds
9 | Ies2 (protein, UniProt P40154 1-320) MDSEASDIEAELSDSVSAGGEEYIDDDDYTEDIDDQIVTAKSSRRTARRSVPKGVRTSKRIRDKELSVEVDEDYDEEEDVLSPSKKRHLHTRSMDKRQVAATASEKSDIGDSKGNDGEIEDGILEEEESLEKELNRGGGKEVEKSEESYYAQNDVGQKGEEEQDGESGGYEDNEPSISKESDELVSVVNGNGNEEDDEVEATKENTTDSTRSTTTRSKMLLDLLEDGGSKKKLTDEEIQLRRAENARKRKNLSEKRLEEEKQDTINKLLKKRAGKSRSHLPNDDEKNDGSSSFVKPRRPYNSEGMTRILRRYEEDLFCTF |  | binds
